Here are results for 2 substances from publication doi:10.1101/2021.02.16.431366.

The target of assay [1] is T1, TRPV5 distal helix peptide (rabbit).
T1 sequence (peptide, Biotin-C6 on the N-terminus): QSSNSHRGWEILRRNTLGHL
The assay can be described thus: pull-down.

The target of assay [2] is T2, TRPV5 proximal helix peptide (rabbit).
T2 sequence (peptide, Biotin-C6 on the N-terminus): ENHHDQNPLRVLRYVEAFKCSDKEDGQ
The assay can be described thus: pull-down.

No constants are given. Whether binding was seen depends on the method and setting. In cells and extracts the contact can be indirect. Some results given as binding are weak or reduced against the parent protein; the word gives no strength.

As for “GST-C-lobe (from UniProt P0DP29 81-149) (domain or fragment)”, the binding entry in assay [1] was “binds”. As to “GST-N-lobe (from UniProt P0DP29 1-80) (domain or fragment)”, the binding entry in assay [2] and in assay [1] was “binds weakly” each time.
